No constants are given. Whether binding was seen depends on the method and setting. In cells and extracts the contact can be indirect. Binding calls can cover weak binding; strength is not graded here.
Target: Tspan8 (rat (endogenous in rat tumor lines))
Test: co-IP; co-immunoprecipitation of exosome lysates from rat tumor lines

Chains of the proteins cited; added tags and fusions are not shown. Residues count along the entry.
UniProt Q64632, residues 28-1807: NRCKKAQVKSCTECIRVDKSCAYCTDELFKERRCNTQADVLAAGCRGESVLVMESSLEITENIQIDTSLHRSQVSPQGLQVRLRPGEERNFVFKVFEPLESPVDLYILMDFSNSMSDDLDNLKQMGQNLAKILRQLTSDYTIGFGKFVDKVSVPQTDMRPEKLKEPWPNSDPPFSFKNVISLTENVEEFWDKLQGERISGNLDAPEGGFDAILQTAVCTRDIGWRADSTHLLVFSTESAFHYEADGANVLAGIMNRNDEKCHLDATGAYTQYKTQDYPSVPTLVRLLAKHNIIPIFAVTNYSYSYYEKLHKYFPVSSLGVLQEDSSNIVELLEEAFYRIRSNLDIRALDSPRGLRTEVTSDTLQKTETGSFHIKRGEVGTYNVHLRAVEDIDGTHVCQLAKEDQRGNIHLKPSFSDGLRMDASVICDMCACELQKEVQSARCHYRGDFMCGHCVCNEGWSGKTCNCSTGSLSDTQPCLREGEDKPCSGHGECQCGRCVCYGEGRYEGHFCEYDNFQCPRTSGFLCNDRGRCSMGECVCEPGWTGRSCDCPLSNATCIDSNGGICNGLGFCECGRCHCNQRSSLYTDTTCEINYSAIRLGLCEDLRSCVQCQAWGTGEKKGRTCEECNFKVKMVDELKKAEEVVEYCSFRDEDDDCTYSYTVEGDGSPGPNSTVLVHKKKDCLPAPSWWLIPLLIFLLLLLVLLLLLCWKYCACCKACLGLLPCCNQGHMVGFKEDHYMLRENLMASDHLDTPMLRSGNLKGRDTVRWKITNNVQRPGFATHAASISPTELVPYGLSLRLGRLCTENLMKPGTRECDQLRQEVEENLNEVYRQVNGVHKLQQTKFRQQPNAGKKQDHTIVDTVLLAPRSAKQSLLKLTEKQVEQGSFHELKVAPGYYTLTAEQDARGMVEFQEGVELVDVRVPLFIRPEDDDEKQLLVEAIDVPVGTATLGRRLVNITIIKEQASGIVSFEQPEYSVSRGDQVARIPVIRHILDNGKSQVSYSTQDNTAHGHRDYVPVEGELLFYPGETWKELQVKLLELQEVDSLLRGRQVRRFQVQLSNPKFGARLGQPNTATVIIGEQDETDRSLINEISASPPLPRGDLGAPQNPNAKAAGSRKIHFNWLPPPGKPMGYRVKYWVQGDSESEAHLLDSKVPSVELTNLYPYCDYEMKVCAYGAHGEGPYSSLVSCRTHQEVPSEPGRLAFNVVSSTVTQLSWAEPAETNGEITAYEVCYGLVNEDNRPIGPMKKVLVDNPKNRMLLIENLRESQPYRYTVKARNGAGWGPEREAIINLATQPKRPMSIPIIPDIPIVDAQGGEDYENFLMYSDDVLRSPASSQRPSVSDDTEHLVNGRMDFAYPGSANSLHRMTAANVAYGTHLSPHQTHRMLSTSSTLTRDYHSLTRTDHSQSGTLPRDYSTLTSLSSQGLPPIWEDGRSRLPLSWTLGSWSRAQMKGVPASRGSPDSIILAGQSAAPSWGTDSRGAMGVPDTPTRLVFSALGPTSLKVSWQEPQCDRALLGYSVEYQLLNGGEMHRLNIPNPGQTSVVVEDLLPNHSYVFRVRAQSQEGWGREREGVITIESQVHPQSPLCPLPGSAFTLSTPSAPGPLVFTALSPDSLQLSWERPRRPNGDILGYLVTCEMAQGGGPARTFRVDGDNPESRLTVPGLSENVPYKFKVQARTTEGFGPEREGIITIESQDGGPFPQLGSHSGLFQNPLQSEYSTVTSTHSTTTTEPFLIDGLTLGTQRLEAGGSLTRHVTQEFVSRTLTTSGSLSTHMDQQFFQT

For “beta4 integrin chain (from UniProt Q64632 28-1807)”, the binding was “binds”.
